The record followed here is PubChem BioAssay AID2685 (National Center for Advancing Translational Sciences (NCATS), 2010).

A short description of the experiment: qHTS Assay for Lipid Storage Modulators in Drosophila S3 Cells.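 On cell number change: cells counted by Cell Tracker Red CMTPX staining in the red channel.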 The note with it: BODIPY lipid droplet fluorescence, 18-24 h; for cell number change: measured here: cell count max response, cells fed with added oleic acid. Summed up:
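Drosophila S3 cells loaded with oleic acid (400 uM, as added) and compounds at several concentrations; lipid droplets imaged by 488-nm laser-scanning cytometry, 500–530 nm intensity and object ratio to cell channel. Percent activity normalized to 20 uM Triacsin C.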

[1] abbreviates: measured here: lipid fluorescence (Fed channel) AC50, cells fed with added oleic acid.
The mark [2] stands for this setting: measured here: cell number channel AC50, cells fed with added oleic acid.

Molecules are shown by their SMILES. This is one part of the list. These are further read-outs of the screen, such as a control signal, another cell line or another target. No call is given for them. Most of these compounds were active or inconclusive in the main read-out, so they are no random draw. Potencies come from curve fits of mixed quality, noted in brackets.

Regarding `Cc1ccc(S(=O)(=O)N2CCN(C(=O)c3c(-c4ccccc4)noc3C)CC2)cc1C`, the cell number change is 20.3%. For the same compound, the AC50 under setting [1] is 2.31 µM [rising, partial curve].

Turning to `OC(COc1cccc2ccccc12)CN1CCN(c2ccccc2)CC1` (stereo unspecified), the cell number change was -73.3%. Also, under setting [2], the AC50 is 14.6 µM [falling, partial curve]. Moreover, the AC50 under setting [1] is 16.4 µM [falling, partial curve].

For the compound `c1csc(-c2nc(NCC3CCCO3)c3ccccc3n2)c1` (stereo unspecified), the cell number change was found to be 15.5%. The AC50 under setting [1] was 6.51 µM [rising, single point].

For `COc1ccccc1CNC(=O)CSc1ccc(Br)cc1`, the cell number change was 71%. Besides, under setting [2], the AC50 was 11.6 µM [rising, single point]. Also, under setting [1], the AC50 is 3.66 µM [rising, full curve].

On to `COc1cc(C(=O)NNC(=O)C2CCC2)cc(OC)c1OC`, for which the cell number change worked out at 8.36%. Besides, under setting [1], the AC50 was 0.517 µM [rising, full curve, poor fit].

`CC1CCC(NC(=O)CN2C(=O)C3CCCN3c3ncc(Cl)cc32)CC1` (stereo unspecified): the cell number change was found to be 218%.

On to `Cc1cc(C)cc(NC(=O)N2CCC(C(=O)c3ccc(F)cc3)CC2)c1`, for which the cell number change was 6.95%. In addition, under setting [1], the AC50 was 0.651 µM [rising, single point].

With `CC(NC(=O)COc1ccc(S(=O)(=O)N2CCCC2)cc1)c1ccccc1` (stereo unspecified), the cell number change was -1.68%. For the same compound, the AC50 under setting [1] was 0.058 µM [falling, full curve, poor fit].

Turning to `CCNC(=S)Nc1ccc2cn[nH]c2c1`, the cell number change was -5.14%.

Take `CCOc1ccc(CCNC(=O)COC(=O)COc2cc(C)cc(C)c2)cc1OCC`: the cell number change was -25.8%. Also, the AC50 under setting [2] is 3.26 µM [falling, full curve, poor fit]. For the same compound, the AC50 under setting [1] was 3.26 µM [falling, full curve].

In the case of `CC1Oc2ccccc2N(CC(=O)NCC2CCCO2)C1=O` (stereo unspecified), the cell number change was determined as 4.49%. Also, the AC50 under setting [1] is 0.731 µM [rising, full curve, poor fit].

With `COc1ccc(N2CCN(C(=S)Nc3cc(C)ccc3C)CC2)cc1`, the cell number change was found to be 4.6%. Besides, under setting [1], the AC50 is 5.17 µM [rising, full curve, poor fit].

As for `CCOc1ccc(NC(=O)C2C(c3ccccc3)C2(Cl)Cl)cc1` (stereo unspecified), the half-maximal activity concentration (AC50) under setting [1] was 1.3 µM [falling, full curve, poor fit].

Consider `Cc1c(NC(=S)NC(=O)COc2ccccc2)c(=O)n(-c2ccccc2)n1C`, for which the AC50 is 6.51 µM [rising, partial curve, poor fit] under setting [2] and 6.51 µM [rising, partial curve, poor fit] under setting [1].

Consider `Cc1ccc(CCNC(=O)c2cc(S(=O)(=O)N3CCCCC3)c[nH]2)cc1`, for which the cell number change is -34.4%. For the same compound, under setting [2], the AC50 is 23.1 µM [falling, single point].

As to `NS(=O)(=O)c1ccc(CCNC(=O)c2cc(-c3ccc(Br)cc3)nc3ccccc23)cc1`, the cell number change came out at 9.23%.

For the compound `COc1cccc(C(=O)c2c[nH]c(C(=O)NCc3cccs3)c2)c1`, the AC50 under setting [2] was 3.66 µM [rising, single point].

On to `CN1C(=O)/C(=C\c2cccc(OCc3ccccc3)c2)SC1=S`, for which the cell number change was 2.78%.

As for `CC1(C)CC(N=c2cc(-c3ccccc3)oc3ccc(Cl)cc23)CC(C)(C)N1`, the cell number change is -54%. The AC50 under setting [2] was 18.4 µM [falling, single point]. Moreover, the AC50 under setting [1] is 29.1 µM [falling, single point].

Consider `C=CCNC(=O)CSc1nc2sc(C)c(C)c2c(=O)[nH]1`, for which the cell number change is -0.354%.

In the case of `CCc1noc(C)c1C(=O)Nc1ccc(S(=O)(=O)N2CCCC(C)C2)cc1` (stereo unspecified), the cell number change was -15.1%. The AC50 under setting [1] is 0.00461 µM [falling, full curve, poor fit].

As for `COc1cc(C(=O)Oc2c(CN3CCOCC3)cc(Cl)c3cccnc23)cc(OC)c1OC`, the cell number change turned out to be 14.7%. The AC50 under setting [1] is 32.6 µM [falling, single point].

Turning to `CCCN1CCN(CCCNC(=O)C2CCCN(c3nc4ccc(OCC)cc4s3)C2)CC1` (stereo unspecified), the cell number change is -155%. In addition, the AC50 under setting [2] is 18.4 µM [falling, single point]. Moreover, under setting [1], the AC50 is 29.1 µM [falling, single point].

In the case of `O=C(OCC(=O)N1CCCC1=O)c1ccc(F)c(S(=O)(=O)N2CCOCC2)c1`, the cell number change is -18.3%. The AC50 under setting [1] was 29.1 µM [rising, single point].

Consider `O=c1[nH]c(C2CCN(S(=O)(=O)Cc3ccccc3)CC2)nc2c1nnn2Cc1ccccc1Cl`, for which the cell number change was 21.4%.

For `COc1cc(NS(=O)(=O)c2ccc(NC(=S)NC(=O)c3ccc(Br)cc3)cc2)ncn1`, the cell number change turned out to be 17.2%. For the same compound, under setting [1], the AC50 is 0.206 µM [rising, partial curve].

As for `N#CC(c1ccc(Cl)cc1)c1ccc2c(C(F)(F)F)cc(C(F)(F)F)nc2n1` (stereo unspecified), the cell number change was -78.2%. Moreover, the AC50 under setting [2] was 18.4 µM [falling, partial curve]. The AC50 under setting [1] is 16.4 µM [falling, single point].

In the case of `CC(=O)Nc1ccc(C2(c3ccc(NC(C)=O)cc3)C(=O)Nc3ccccc32)cc1`, the cell number change came out at 22.1%. Moreover, the AC50 under setting [2] is 0.103 µM [falling, full curve, poor fit].

As for `COc1ccc(Cn2c(=O)[nH]c3cc(OC)c(OC)cc3c2=O)cc1`, the cell number change was 43.8%. Besides, under setting [2], the AC50 is 25.9 µM [rising, partial curve]. Also, the AC50 under setting [1] is 0.461 µM [rising, full curve, poor fit].

For the compound `CC(NC(=O)CN(C)CC(=O)Nc1ccc(F)c(F)c1F)c1ccccc1` (stereo unspecified), the cell number change is 4.15%.

Turning to `O=C(COC(=O)Cc1c(F)cccc1Cl)NCCC1=CCCCC1`, the cell number change amounted to 0.445%. Besides, the AC50 under setting [1] is 0.058 µM [falling, full curve, poor fit].

Consider `CCC(=O)NC(=S)Nc1ccc(OC)cc1OC`, for which the cell number change was determined as 82.9%. Moreover, the AC50 under setting [2] was 0.116 µM [rising, full curve, poor fit].

For the compound `O=C1C=C(NNC(=O)c2ccncc2)CC(c2ccccc2)C1` (stereo unspecified), the cell number change stood at 60.2%.

On to `COc1ccc(Cl)cc1Nc1nc(-c2sc(NC(=O)CC(C)C)nc2C)cs1`, for which the cell number change is -49.9%. Also, the AC50 under setting [2] was 29.1 µM [falling, single point]. The AC50 under setting [1] is 2.59 µM [falling, full curve, poor fit].

As to `CCOC(=O)Cc1csc2nc(-c3ccccc3)nn12`, under setting [2], the AC50 was 0.103 µM [rising, partial curve, poor fit].

As to `CCN(CC)S(=O)(=O)c1cccc(N=NC2=C(O)CCCC2=O)c1`, the cell number change stood at 19.1%. The AC50 under setting [1] is 0.291 µM [falling, partial curve, poor fit].

On to `O=[N+]([O-])c1ccc(-c2nn(-c3ccccc3)cc2/C=N/n2c(-c3ccncc3)n[nH]c2=S)cc1`, for which the cell number change was -30.5%. Further, the AC50 under setting [2] was 5.8 µM [falling, full curve, poor fit].
